Reference: the supplement of paper PMC8858631
Structures can show the parent of a compound that is named as a salt. The list shows a part of the results. No stated cut-off is given here; in the data, active = 0.5 or less and inactive = the rest. Single values are uncertain, as repeats are few or missing.

Each molecule was assayed on SK-MEL-28 (assay: EEF2K protein level normalised to actin (western blot) after treatment (ratio (EEF2K/Actin)); higher = more EEF2K protein remaining (less EEF2K suppression)). Settings: 5 µM; 24 h.

Row | SMILES | EEF2K protein level normalised to actin
1 | O=C(O)c1nn(Cc2ccc(Cl)cc2Cl)c2ccccc12 [Lonidamine] | inactive: 1.88
2 | Cn1cc(C2=C(c3cn(C4CCN(Cc5ccccn5)CC4)c4ccccc34)C(=O)NC2=O)c2ccccc21 | inactive: 1.96
3 | O=P1(N(CCCl)CCCl)NCCCO1 (configuration not stated) [Cyclophosphamide Monohydrate] | inactive: 3.17
4 | COC(=O)C[C@](O)(CCC(C)(C)O)C(=O)O[C@@H]1C(OC)=C[C@]23CCCN2CCc2cc4c(cc2[C@H]13)OCO4 [Harringtonine] | inactive: 3.24
5 | Cn1c(CCCC(=O)O)nc2cc(N(CCCl)CCCl)ccc21 [Bendamustine HCl] | inactive: 1.13
6 | Cn1c(CCCC(=O)O)nc2cc(N(CCCl)CCCl)ccc21 [Bendamustine] | inactive: 1.76
7 | CC(C)[C@]12O[C@H]1[C@@H]1O[C@@]13[C@@]1(C)CCC4=C(COC4=O)[C@@H]1C[C@@H]1O[C@@]13C2=O [Triptonide] | inactive: 2.35
8 | C=CCN1C[C@H](C(=O)N(CCCN(C)C)C(=O)NCC)C[C@@H]2c3cccc4[nH]cc(c34)C[C@H]21 [Cabergoline] | inactive: 2.21
9 | O=C(O)C1C2CCC(O2)C1C(=O)O (configuration not stated) [Sodium Demethylcantharidate] | inactive: 0.61
10 | O=P1(NCCCl)OCCCN1CCCl (configuration not stated) [Ifosfamide] | inactive: 0.7
11 | O=C(O)CCCc1ccc(N(CCCl)CCCl)cc1 [Chloroambucil] | inactive: 1.81
12 | N[C@@H](Cc1ccc(N(CCCl)CCCl)cc1)C(=O)O [Melphalan] | inactive: 1.37

Given tab-delimited: entries from further up.
Row	SMILES	EEF2K protein level normalised to actin
5	Cn1c(CCCC(=O)O)nc2cc(N(CCCl)CCCl)ccc21 [Bendamustine HCl]	inactive: 1.13
6	Cn1c(CCCC(=O)O)nc2cc(N(CCCl)CCCl)ccc21 [Bendamustine]	inactive: 1.76
7	CC(C)[C@]12O[C@H]1[C@@H]1O[C@@]13[C@@]1(C)CCC4=C(COC4=O)[C@@H]1C[C@@H]1O[C@@]13C2=O [Triptonide]	inactive: 2.35
